Assay [1] addresses T1, ABI5-Binding Protein 2 (AFP2), yeast two-hybrid fusions (Arabidopsis thaliana) (UniProt Q9LMX5).
T1 sequence: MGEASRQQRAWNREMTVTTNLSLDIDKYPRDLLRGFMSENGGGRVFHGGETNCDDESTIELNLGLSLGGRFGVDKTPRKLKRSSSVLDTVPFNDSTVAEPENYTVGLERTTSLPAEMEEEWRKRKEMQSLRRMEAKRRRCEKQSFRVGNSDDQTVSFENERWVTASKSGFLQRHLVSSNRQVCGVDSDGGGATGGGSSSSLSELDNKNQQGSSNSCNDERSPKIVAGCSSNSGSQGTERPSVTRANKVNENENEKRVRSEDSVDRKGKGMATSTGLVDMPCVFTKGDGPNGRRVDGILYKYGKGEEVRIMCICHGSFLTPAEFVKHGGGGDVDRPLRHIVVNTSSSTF
Kind of assay: two-hybrid.

For assay [2], the target named is T2, ABI5-Binding Protein 1 (AFP1), yeast two-hybrid fusions (Arabidopsis thaliana) (UniProt Q9LQ98).
T2 sequence: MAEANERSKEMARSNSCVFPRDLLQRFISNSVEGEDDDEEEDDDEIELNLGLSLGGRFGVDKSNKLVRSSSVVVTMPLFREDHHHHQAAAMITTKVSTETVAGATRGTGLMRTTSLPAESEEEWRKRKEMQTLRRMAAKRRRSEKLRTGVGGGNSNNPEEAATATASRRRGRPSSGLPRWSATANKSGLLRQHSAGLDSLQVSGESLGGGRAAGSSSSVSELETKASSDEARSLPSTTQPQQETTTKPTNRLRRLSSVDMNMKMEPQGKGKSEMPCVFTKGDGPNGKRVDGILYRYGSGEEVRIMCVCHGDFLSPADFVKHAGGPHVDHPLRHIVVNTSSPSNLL
Kind of assay: two-hybrid.

Assay [3] concerns the target T3, GRF4 (14-3-3 phi), split YFP fusions (Arabidopsis thaliana) (UniProt P46077).
T3 sequence: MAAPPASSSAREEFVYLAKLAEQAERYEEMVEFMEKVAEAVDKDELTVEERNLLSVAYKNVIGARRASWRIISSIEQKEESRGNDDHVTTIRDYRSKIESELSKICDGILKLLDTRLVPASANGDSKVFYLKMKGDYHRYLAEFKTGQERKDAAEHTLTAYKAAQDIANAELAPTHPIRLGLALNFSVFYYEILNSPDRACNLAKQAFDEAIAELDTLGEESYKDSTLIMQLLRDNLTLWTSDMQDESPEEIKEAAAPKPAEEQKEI
As to the kind of experiment: split reporter.

Assay [4] deals with T4, MPK7, yeast two-hybrid fusion (Arabidopsis thaliana) (UniProt Q39027).
T4 sequence: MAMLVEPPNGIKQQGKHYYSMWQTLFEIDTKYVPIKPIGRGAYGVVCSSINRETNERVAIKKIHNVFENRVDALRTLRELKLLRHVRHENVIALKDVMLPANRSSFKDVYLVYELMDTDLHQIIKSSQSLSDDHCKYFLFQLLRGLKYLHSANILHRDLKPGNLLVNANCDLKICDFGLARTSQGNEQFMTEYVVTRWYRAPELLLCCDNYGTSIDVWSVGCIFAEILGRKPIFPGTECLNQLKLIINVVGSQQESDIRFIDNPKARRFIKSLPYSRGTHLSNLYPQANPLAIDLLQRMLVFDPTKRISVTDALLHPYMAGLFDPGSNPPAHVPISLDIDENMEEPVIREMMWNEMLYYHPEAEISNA
As to the kind of experiment: two-hybrid.

The target in assay [5] is T5, SnRK2.3, BD fusion (Arabidopsis thaliana) (UniProt Q39193).
T5 sequence: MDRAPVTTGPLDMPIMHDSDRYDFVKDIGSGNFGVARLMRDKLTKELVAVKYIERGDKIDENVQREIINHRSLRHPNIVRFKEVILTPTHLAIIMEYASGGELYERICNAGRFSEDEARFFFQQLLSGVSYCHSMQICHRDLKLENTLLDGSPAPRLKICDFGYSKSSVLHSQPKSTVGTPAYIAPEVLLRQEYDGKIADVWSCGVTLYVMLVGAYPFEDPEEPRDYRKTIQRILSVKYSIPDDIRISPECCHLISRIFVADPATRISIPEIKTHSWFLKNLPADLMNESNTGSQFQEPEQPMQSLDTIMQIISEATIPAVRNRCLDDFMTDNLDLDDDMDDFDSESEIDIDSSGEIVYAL
Kind of assay: two-hybrid.

Assay [6] addresses T6, SnRK2.2, BD fusion (Arabidopsis thaliana) (UniProt Q39192).
T6 sequence: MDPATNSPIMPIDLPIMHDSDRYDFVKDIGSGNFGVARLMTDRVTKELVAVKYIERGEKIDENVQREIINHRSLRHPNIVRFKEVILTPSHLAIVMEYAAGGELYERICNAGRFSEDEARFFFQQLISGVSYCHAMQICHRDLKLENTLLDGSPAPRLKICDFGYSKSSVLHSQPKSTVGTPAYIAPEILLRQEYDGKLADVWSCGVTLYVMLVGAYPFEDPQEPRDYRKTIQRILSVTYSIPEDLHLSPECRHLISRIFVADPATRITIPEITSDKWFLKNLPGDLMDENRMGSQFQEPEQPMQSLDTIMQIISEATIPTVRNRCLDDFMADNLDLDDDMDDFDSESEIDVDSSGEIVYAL
Kind of assay: two-hybrid.

Assay [7] deals with T7, SnRK2.6, BD fusion (Arabidopsis thaliana) (UniProt Q940H6).
T7 sequence: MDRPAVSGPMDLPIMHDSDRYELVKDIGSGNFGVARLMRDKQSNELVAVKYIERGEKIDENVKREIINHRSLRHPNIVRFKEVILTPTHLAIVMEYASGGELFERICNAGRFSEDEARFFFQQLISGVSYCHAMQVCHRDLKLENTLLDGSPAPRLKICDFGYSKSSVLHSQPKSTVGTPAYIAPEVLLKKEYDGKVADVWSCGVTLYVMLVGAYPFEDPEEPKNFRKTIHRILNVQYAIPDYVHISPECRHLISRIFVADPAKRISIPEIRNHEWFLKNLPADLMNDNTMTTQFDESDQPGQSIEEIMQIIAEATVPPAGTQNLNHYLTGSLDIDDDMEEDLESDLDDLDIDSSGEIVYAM
As to the kind of experiment: two-hybrid.

Assay [8] addresses T8, MPK3, BD fusion (Arabidopsis thaliana) (UniProt Q39023).
T8 sequence: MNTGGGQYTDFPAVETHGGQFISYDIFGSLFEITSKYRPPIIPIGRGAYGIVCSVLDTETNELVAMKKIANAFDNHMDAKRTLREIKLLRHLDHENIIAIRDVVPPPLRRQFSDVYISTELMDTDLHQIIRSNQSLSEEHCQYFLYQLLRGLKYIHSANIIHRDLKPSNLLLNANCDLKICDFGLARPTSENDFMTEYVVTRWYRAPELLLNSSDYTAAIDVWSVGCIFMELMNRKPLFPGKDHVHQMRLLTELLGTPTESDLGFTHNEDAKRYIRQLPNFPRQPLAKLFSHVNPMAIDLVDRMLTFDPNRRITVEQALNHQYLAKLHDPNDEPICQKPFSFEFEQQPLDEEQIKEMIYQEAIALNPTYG
Kind of assay: two-hybrid.

These are yes or no findings as the source states them, for the method shown. For some assays here: Binding seen in cells or lysates may run through a third protein. Some binding calls cover weakened binding; strength is not graded here. Where a sequence is shown, tags or fusion partners need not be part of it.

B1: GRF3 (14-3-3 psi), AD fusion (protein, UniProt P42644 1-255)
chain: MSTREENVYMAKLAEQAERYEEMVEFMEKVAKTVDVEELSVEERNLLSVAYKNVIGARRASWRIISSIEQKEESKGNEDHVAIIKDYRGKIESELSKICDGILNVLEAHLIPSASPAESKVFYLKMKGDYHRYLAEFKAGAERKEAAESTLVAYKSASDIATAELAPTHPIRLGLALNFSVFYYEILNSPDRACSLAKQAFDDAIAELDTLGEESYKDSTLIMQLLRDNLTLWTSDMTDEAGDEIKEASKPDGAE
B1: the results for the binding result in assay [1] and in assay [2] were “binds” and “binds weakly”, respectively.

B2: GRF1 (14-3-3 chi), AD fusion (protein, UniProt P42643 1-267)
chain: MATPGASSARDEFVYMAKLAEQAERYEEMVEFMEKVAKAVDKDELTVEERNLLSVAYKNVIGARRASWRIISSIEQKEESRGNDDHVSLIRDYRSKIETELSDICDGILKLLDTILVPAAASGDSKVFYLKMKGDYHRYLAEFKSGQERKDAAEHTLTAYKAAQDIANSELAPTHPIRLGLALNFSVFYYEILNSPDRACNLAKQAFDEAIAELDTLGEESYKDSTLIMQLLRDNLTLWTSDMQDDVADDIKEAAPAAAKPADEQQS
Turning to B2, the binding result was “no binding” in assay [1] and “binds weakly” in assay [2].

B3: S112A mutant of the AFP2-BC domain, split YFP fusion (domain or fragment, UniProt Q9LMX5 94-348)
chain: DSTVAEPENYTVGLERTTALPAEMEEEWRKRKEMQSLRRMEAKRRRCEKQSFRVGNSDDQTVSFENERWVTASKSGFLQRHLVSSNRQVCGVDSDGGGATGGGSSSSLSELDNKNQQGSSNSCNDERSPKIVAGCSSNSGSQGTERPSVTRANKVNENENEKRVRSEDSVDRKGKGMATSTGLVDMPCVFTKGDGPNGRRVDGILYKYGKGEEVRIMCICHGSFLTPAEFVKHGGGGDVDRPLRHIVVNTSSSTF
As to B3, the binding result in assay [3] is recorded as “binds”.

B4: GRF4 (14-3-3 phi), AD fusion (protein, UniProt P46077 1-267)
chain: T3 sequence
B4: the binding entry is reported as “binds” in assay [1] and “binds weakly” in assay [2].

B5: ABI5-Binding Protein 4 (AFP4), yeast two-hybrid fusions (protein, UniProt Q9S7Z2 1-319)
chain: MEMIRGRGIPNGVVQVPNLSANNLLQKFFIASNHFCQRDSEHGENQQEAKKREDEAEEDEKDVELTLGLSLNGQFGTDPRSRKRRHFELGRSSSIPEGFVFDEQRSGGGNGGDMRRIVGRGGSDMFQLDRTRSLPVVTEMDIEKERKVSEKTRAFMESPVTNRGAYLTKDKNRGQAVETEKPRAFLEFKIPPTKEGKKEKDRLVVTGPVNGKGKNGNTAKKQKNNVENSGMEKARNILEDMPCVSTRDVGADGKRVEGFLYWYGGNKEEVKIVCVCHGSFLSPAEFVRHGGGTVSDDDGGDVMINPLRHIVVKLPSSSI
Consider B5, for which the binding entry in assay [4], in assay [5], in assay [6], in assay [7] and in assay [8] was “no binding” in each case.

B6: GRF2 (14-3-3 omega), AD fusion (protein, UniProt Q01525 1-259)
chain: MASGREEFVYMAKLAEQAERYEEMVEFMEKVSAAVDGDELTVEERNLLSVAYKNVIGARRASWRIISSIEQKEESRGNDDHVTAIREYRSKIETELSGICDGILKLLDSRLIPAAASGDSKVFYLKMKGDYHRYLAEFKTGQERKDAAEHTLAAYKSAQDIANAELAPTHPIRLGLALNFSVFYYEILNSPDRACNLAKQAFDEAIAELDTLGEESYKDSTLIMQLLRDNLTLWTSDMQDDAADEIKEAAAPKPTEEQQ
With B6, the binding entry in assay [1] is listed as “no binding”; in assay [2] it was “binds weakly”.

The values above are taken from paper doi:10.1101/2024.10.11.617944.
